Earlier results, collected in US9771376B2 (GENENTECH, INC., priority 2000, dated 2017).

Conditions: administered topically (Lidoderm patch); cited from earlier work

In the case of `CCN(CC)CC(=O)Nc1c(C)cccc1C` [lidocaine], the plasma concentrations is given as “about 1 μM”.
